Laboratory results: US20230212122A1, “MITOCHONDRIAL TARGETING COMPOUNDS FOR THE TREATMENT OF ASSOCIATED DISEASES” (The Regents of the University of Michigan, priority 2020, published 2023)
This continues a long series; more values of the same kind are listed elsewhere.

Key:
UM16 cell line [1] = test: GSEA of Bru-seq data (hallmark, KEGG, GO pathways, transcription factors); type: cell-based; settings: 5 μM, 4 hours
Excerpt: Consistent with this observation, there are also massive metabolite pathways influenced including starch and sucrose metabolism, glycolysis and gluconeogenesis, purine metabolism, pyrimidine metabolism, N-glycan biosynthesis, etc.

UM16 cell line [2] = test: GSEA of proteomics data ([…], KEGG pathways); type: cell-based; settings: 5 μM, 24 hours
Excerpt: Several proteins participating in energy metabolism were dramatically changed.

CCOC(=O)[C@@H]1CCCN(S(=O)(=O)c2ccc(S(=O)(=O)N(CC)CC)cc2)C1 [DX2-201, ethyl (R)-1-((4-(N,N-diethylsulfamoyl)phenyl)sulfonyl)piperidine-3-carboxylate]
NES (UM16 cell line [1]; transcription factor set AP4_Q6, FDR q-val 0.078): 1.607 | NES (UM16 cell line [1]; transcription factor set AREB6_04, FDR q-val 0.098): 1.566 | NES (UM16 cell line [1]; transcription factor set E47_01, FDR q-val 0.060): 1.646 | NES (UM16 cell line [1]; transcription factor set FOXJ2_02, FDR q-val 0.090): 1.582 | NES (UM16 cell line [1]; transcription factor set FOXO1_02, FDR q-val 0.007): 2.057 | NES (UM16 cell line [1]; transcription factor set FOXO4_01, FDR q-val 0.014): 2.069 | NES (UM16 cell line [1]; transcription factor set FOXO4_02, FDR q-val 0.007): 2.000 | NES (UM16 cell line [1]; transcription factor set FREAC3_01, FDR q-val 0.058): 1.657 | NES (UM16 cell line [1]; transcription factor set HNF3_Q6, FDR q-val 0.073): 1.604 | NES (UM16 cell line [1]; transcription factor set NKX62_Q2, FDR q-val 0.058): 1.663 | NES (UM16 cell line [1]; transcription factor set OCT1_Q5_01, FDR q-val 0.094): 1.574 | NES (UM16 cell line [1]; transcription factor set PAX2_02, FDR q-val 0.061): 1.664 | NES (UM16 cell line [1]; transcription factor set RYCACNNRNNRNCAG_UNKNOWN, FDR q-val 0.075): 1.606 | NES (UM16 cell line [1]; transcription factor set TTANWNANTGGM_UNKNOWN, FDR q-val 0.051): 1.686 | NES (UM16 cell line [1]; transcription factor set YWATTWNNRGCT_UNKNOWN, FDR q-val 0.059): 1.641 | ES (UM16 cell line [2]; HALLMARK_ESTROGEN_RESPONSE_EARLY, FDR q-val 0.813): 0.301 | ES (UM16 cell line [2]; KEGG_ANTIGEN_PROCESSING_AND_PRESENTATION, FDR q-val 0.792): −0.285 | ES (UM16 cell line [2]; KEGG_BASAL_TRANSCRIPTION_FACTORS, FDR q-val 0.687): −0.389 | ES (UM16 cell line [2]; KEGG_CELL_CYCLE, FDR q-val 0.828): −0.246 | ES (UM16 cell line [2]; KEGG_CITRATE_CYCLE_TCA_CYCLE, FDR q-val 0.422): −0.445 | ES (UM16 cell line [2]; KEGG_DNA_REPLICATION, FDR q-val 0.844): −0.273 | ES (UM16 cell line [2]; KEGG_ERBB_SIGNALING_PATHWAY, FDR q-val 0.821): 0.488 | ES (UM16 cell line [2]; KEGG_N_GLYCAN_BIOSYNTHESIS, FDR q-val 0.658): −0.366 | ES (UM16 cell line [2]; KEGG_PARKINSONS_DISEASE, FDR q-val 0.702): −0.290 | ES (UM16 cell line [2]; KEGG_PROTEASOME, FDR q-val 0.605): −0.401 | ES (UM16 cell line [2]; KEGG_PROTEIN_EXPORT, FDR q-val 0.625): −0.376 | ES (UM16 cell line [2]; KEGG_RIBOSOME, FDR q-val 0.003): −0.520 | ES (UM16 cell line [2]; KEGG_RNA_DEGRADATION, FDR q-val 0.672): −0.342 | ES (UM16 cell line [2]; KEGG_SPLICEOSOME, FDR q-val 0.541): −0.310 | ES (UM16 cell line [2]; KEGG_VIBRIO_CHOLERAE_INFECTION, FDR q-val 0.754): −0.335
